PubChem BioAssay AID1224830 – NIAID, 2016

- Test: 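Genes whose knock-down alters the TNF-alpha reporter response to LPS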 (primary screen)
- System: human THP-1 monocytic leukaemia cells, TNF dual-luciferase reporter clone, PMA-differentiated to macrophage-like cells
- Knock-down reagent: siRNA pool against human genes, 50 nM
- Duration: LPS for 4 h, given about 3 days after siRNA transfection
- Conditions: bacterial LPS (TLR4 ligand), 10 ng/ml
- Measurement: 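Ratio of firefly to renilla light, scaled to the plate median and expressed as a robust z-score per replicate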
- Direction: TNF reporter robust z-score: higher = stronger TNF reporter response to LPS
- Hit rule: 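Each well counts as active if its z-score is over 2.8 or under -1.5; controls are left without a call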
Shown is a random part of about 18,000 reagents. About 2,900 of them (16%) count as active. 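Calls are made per well; low scores hint the gene aids the LPS response, high scores that it dampens it.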 A number with no mark means an inactive call. Repeated entries: four replicate wells of each siRNA pool. No sequences are given here.

| target gene | TNF reporter robust z-score |
| --- | --- |
| SPZ1 | -0.05 |
| SPZ1 | -0.17 |
| SPZ1 | -0.57 |
| SPZ1 | -0.27 |
| MYL6 | -0.49 |
| MYL6 | -0.03 |
| MYL6 | -0.55 |
| MYL6 | 0.32 |
| GLCE | -0.19 |
| GLCE | 1.65 |
| GLCE | -0.41 |
| GLCE | 1.3 |
| PNRC2 | 6.86 (active) |
| PNRC2 | 1.11 |
| PNRC2 | 0.82 |
| PNRC2 | -0.01 |
| AICDA | 0.26 |
| AICDA | 0.9 |
| AICDA | 0.36 |
| AICDA | 0.39 |
| DMBT1 | 0.11 |
| DMBT1 | 0.49 |
| DMBT1 | -1.09 |
| DMBT1 | -0.66 |
| ZNF226 | 0.04 |
| ZNF226 | 0.11 |
| ZNF226 | 1.28 |
| ZNF226 | 2.21 |
| IRX6 | -0.71 |
| IRX6 | -0.69 |
| IRX6 | -1.05 |
| IRX6 | -0.96 |

Active calls (from the list above):
| target gene | TNF reporter robust z-score |
| --- | --- |
| PNRC2 | 6.86 (active) |

The results go on.
| target gene | TNF reporter robust z-score |
| --- | --- |
| STK17A | 0.95 |
| STK17A | 0.26 |
| STK17A | 2.16 |
| STK17A | -1.05 |
| ZMYM1 | -0.13 |
| ZMYM1 | 0.06 |
| ZMYM1 | -0.14 |
| ZMYM1 | 0 |
| CYSLTR1 | 1.86 |
| CYSLTR1 | 0.27 |
| CYSLTR1 | 0.22 |
| CYSLTR1 | -0.03 |
| TRHR | -0.5 |
| TRHR | -0.07 |
| TRHR | -0.44 |
| TRHR | 1.33 |
